Results taken from paper PMC10540051.
Results are given in words; binding and its absence hold for the method and conditions named. Binding seen in cells or lysates may run through a third protein. Some results given as binding are weak or reduced against the parent protein; the word gives no strength. Tags and fused reporters may be left off the sequences shown.

Chains of the proteins cited; added tags and fusions are not shown. Residues count along the entry.
UniProt Q99523, residues 78-831: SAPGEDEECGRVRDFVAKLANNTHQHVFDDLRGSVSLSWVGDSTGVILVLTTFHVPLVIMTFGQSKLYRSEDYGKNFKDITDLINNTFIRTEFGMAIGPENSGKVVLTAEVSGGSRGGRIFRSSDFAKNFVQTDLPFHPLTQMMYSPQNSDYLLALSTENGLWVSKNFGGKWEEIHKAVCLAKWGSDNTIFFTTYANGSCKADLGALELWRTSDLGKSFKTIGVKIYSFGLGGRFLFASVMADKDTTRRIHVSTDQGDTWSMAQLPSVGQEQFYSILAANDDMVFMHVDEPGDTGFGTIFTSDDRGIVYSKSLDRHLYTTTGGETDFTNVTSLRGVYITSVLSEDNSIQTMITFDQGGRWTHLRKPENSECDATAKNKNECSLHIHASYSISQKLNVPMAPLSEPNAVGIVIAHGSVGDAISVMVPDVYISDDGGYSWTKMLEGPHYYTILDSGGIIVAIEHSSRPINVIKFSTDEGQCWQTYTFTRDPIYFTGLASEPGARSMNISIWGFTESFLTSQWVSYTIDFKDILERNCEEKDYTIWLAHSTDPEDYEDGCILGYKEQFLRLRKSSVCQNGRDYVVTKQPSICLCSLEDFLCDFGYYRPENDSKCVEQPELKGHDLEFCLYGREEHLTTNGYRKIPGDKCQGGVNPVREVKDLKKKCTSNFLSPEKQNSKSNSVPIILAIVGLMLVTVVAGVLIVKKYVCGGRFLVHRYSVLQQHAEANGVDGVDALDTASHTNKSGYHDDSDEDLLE

Target: Sortilin-tdTomato (human) (UniProt Q99523)
Assay: FRET or BRET; FLIM: HeLa cells transfected with BDNF-GFP (donor) cocultured with HeLa, HEK293 or SH-SY5Y cells transfected with tdTomato-tagged receptors or tdTomato-GluA2 (acceptor), fixed with 4% PFA; lifetime of GFP measured pixel by pixel; reference: HeLa cells expressing BDNF-GFP alone

binding: binds
B1: BDNF-GFP (ligand, UniProt P23560 19-247)
chain: APMKEANIRGQGGLAYPGVRTHGTLESVNGPKAGSRGLTSLADTFEHVIEELLDEDQKVRPNEENNKDADLYTSRVMLSSQVPLEPPLLFLLEEYKNYLDAANMSMRVRRHSDPARRGELSVCDSISEWVTAADKKTAVDMSGGTVTVLEKVPVSKGQLKQYFYETKCNPMGYTKEGCRGIDKRHWNSQCRTTQSYVRALTMDSKKRIGWRFIRIDTSCVCTLTIKRGR
